Assay results as given in paper PMC3041725.
No constants are given. Whether binding was seen depends on the method and setting. Binding seen in cells or lysates may run through a third protein. Some binding calls cover weakened binding; strength is not graded here. For some assays here: Tags and fused reporters may be left off the sequences shown.

The chains behind the UniProt entries cited, without tags or fusion partners.
UniProt P29555: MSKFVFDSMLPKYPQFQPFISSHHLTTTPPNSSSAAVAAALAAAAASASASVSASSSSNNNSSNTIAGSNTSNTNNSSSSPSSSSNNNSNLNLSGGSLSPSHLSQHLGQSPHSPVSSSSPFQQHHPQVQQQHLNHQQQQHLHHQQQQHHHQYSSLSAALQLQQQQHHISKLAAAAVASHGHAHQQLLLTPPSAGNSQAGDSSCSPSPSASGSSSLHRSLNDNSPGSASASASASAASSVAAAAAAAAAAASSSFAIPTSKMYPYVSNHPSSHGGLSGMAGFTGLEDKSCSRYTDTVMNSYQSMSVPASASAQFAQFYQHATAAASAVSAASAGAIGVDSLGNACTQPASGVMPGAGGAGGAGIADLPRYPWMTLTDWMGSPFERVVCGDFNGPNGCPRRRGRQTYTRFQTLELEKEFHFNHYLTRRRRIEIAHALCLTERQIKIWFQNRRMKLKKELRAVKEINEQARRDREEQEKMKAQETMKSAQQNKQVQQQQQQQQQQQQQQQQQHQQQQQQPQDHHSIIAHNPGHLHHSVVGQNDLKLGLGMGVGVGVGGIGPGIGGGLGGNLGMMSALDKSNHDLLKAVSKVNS
UniProt P83949: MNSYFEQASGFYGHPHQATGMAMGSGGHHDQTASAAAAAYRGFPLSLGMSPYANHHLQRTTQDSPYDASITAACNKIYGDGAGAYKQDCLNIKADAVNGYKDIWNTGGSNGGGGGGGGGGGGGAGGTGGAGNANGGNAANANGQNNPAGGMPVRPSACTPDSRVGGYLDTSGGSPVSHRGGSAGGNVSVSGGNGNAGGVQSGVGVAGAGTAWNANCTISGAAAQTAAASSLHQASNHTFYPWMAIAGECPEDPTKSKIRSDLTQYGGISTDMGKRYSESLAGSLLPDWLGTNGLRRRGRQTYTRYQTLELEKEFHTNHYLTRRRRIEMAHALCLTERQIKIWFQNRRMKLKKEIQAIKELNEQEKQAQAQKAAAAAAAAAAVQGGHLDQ

Key:
[1] = biological target: T1, Exd-VC fusion protein, expressed in Drosophila embryos (Drosophila melanogaster) (UniProt P40427); experiment: split reporter; split Venus (VN 1-173, VC 155-238) BiFC in living Drosophila embryos; fusion proteins expressed by UAS/Gal4 (abdA-Gal4, en-Gal4, btl-Gal4 and others); embryos kept at 4°C for 28 h before confocal imaging
T1 sequence: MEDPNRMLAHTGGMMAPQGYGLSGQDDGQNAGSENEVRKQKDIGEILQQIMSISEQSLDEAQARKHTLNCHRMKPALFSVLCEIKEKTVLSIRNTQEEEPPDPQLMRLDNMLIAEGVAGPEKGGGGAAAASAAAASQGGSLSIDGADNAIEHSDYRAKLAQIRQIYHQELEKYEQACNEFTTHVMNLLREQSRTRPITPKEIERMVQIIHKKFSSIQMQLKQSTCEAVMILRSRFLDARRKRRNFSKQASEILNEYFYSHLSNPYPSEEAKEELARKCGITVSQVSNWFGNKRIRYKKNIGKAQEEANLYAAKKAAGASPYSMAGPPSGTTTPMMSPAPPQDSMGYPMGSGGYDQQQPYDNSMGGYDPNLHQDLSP

[2] = biological target: VC-AbdA fusion protein, expressed in Drosophila embryos (Drosophila melanogaster) (UniProt P29555); experiment: as above
[3] = biological target: VC-AbdA fusion protein, expressed in Drosophila embryos (Drosophila melanogaster) (UniProt P29555); experiment: split reporter; competition against split Venus BiFC in living Drosophila embryos: an unfused ('cold') protein co-expressed with the two fusion proteins
[4] = biological target: CC-Exd fusion protein (C-terminal fragment of Cerulean fused to Exd), expressed in Drosophila embryos (Drosophila melanogaster) (UniProt P40427); experiment: split reporter; BiFC with split mCherry or split Cerulean fragments (abdA-Gal4) and multicolour BiFC with VN, CN and CC fusions (en-Gal4) in living Drosophila embryos; 28 h at 4°C; AxioImagerZ1 microscope with specific filters

| binding [1] | binding [2] | binding [3] | binding [4] | Substance |
| --- | --- | --- | --- | --- |
| binds weakly | binds | binds |  | VN-AbdA fusion protein, expressed in Drosophila embryos (from UniProt P29555 1-590) |
|  | binds |  | binds | VN-Ubx fusion protein, expressed in Drosophila embryos (from UniProt P83949 1-389) |
